Reference: the supplement of paper PMC12067093, “Discovery and optimisation of a covalent ligand for TRIM25 and its application to targeted protein ubiquitination” (Chemical Science, 2025)
This is one part of the list.

Amino acid sequences for entries named in this document (tags omitted). A change or cut given only in a name is not applied to a line headed by its entry.
UniProt Q13129: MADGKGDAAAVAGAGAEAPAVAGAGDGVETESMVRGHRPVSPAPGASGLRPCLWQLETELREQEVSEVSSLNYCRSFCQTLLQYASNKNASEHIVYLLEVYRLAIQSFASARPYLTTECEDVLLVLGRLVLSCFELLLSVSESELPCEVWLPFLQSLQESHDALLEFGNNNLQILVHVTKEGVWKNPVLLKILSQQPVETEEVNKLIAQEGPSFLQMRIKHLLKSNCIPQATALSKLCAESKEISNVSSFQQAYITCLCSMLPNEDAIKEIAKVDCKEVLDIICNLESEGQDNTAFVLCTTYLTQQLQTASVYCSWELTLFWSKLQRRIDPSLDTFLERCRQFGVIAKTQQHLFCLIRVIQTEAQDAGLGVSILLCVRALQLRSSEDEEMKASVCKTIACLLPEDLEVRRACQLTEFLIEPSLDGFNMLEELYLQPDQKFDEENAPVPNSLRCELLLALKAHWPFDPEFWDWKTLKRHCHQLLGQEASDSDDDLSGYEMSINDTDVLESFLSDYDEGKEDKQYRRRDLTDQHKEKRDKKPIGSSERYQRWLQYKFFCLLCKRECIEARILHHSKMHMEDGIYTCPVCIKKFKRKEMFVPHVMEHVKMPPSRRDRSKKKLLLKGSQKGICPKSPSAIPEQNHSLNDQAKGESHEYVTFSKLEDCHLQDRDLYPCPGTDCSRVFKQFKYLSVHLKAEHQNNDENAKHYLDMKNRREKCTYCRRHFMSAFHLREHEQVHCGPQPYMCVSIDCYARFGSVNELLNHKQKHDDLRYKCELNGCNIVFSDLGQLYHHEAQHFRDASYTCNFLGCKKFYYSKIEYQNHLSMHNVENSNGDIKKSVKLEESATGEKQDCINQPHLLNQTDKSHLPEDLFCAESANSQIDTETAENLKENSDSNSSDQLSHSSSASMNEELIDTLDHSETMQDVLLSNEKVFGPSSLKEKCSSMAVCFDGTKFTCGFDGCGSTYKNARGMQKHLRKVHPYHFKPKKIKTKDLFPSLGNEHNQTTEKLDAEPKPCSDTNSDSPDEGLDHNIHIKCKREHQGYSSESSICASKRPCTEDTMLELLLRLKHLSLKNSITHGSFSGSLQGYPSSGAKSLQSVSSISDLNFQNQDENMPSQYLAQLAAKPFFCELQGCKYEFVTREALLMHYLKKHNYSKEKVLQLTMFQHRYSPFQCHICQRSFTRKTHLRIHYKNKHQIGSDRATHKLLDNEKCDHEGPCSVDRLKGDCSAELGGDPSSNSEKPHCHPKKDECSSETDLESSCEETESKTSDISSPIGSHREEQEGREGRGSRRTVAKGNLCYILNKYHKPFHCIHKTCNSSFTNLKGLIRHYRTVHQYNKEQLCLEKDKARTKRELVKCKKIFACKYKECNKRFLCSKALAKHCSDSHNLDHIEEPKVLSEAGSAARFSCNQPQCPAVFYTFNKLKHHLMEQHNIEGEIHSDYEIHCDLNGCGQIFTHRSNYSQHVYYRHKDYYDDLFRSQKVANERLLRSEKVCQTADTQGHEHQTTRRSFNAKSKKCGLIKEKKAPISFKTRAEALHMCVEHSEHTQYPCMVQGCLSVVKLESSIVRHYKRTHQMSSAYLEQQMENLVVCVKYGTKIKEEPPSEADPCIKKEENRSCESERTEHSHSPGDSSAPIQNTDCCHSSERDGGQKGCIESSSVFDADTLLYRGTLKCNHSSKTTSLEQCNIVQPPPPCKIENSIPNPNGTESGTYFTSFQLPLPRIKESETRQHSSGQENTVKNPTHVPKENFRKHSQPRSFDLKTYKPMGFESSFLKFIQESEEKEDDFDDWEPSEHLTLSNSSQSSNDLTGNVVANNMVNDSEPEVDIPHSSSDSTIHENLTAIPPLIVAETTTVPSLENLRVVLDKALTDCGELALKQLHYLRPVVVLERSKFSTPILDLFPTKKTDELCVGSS
UniProt Q92546: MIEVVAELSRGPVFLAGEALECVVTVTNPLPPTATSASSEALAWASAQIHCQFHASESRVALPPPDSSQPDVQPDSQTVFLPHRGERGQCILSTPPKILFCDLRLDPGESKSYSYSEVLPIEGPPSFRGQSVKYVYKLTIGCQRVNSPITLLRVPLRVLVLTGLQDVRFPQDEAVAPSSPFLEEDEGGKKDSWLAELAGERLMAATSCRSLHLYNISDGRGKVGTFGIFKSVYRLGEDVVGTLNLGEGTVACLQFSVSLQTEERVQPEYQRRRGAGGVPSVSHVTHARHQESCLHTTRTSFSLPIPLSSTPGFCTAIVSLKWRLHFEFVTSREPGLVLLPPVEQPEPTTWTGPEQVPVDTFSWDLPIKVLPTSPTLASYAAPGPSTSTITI
UniProt O14730: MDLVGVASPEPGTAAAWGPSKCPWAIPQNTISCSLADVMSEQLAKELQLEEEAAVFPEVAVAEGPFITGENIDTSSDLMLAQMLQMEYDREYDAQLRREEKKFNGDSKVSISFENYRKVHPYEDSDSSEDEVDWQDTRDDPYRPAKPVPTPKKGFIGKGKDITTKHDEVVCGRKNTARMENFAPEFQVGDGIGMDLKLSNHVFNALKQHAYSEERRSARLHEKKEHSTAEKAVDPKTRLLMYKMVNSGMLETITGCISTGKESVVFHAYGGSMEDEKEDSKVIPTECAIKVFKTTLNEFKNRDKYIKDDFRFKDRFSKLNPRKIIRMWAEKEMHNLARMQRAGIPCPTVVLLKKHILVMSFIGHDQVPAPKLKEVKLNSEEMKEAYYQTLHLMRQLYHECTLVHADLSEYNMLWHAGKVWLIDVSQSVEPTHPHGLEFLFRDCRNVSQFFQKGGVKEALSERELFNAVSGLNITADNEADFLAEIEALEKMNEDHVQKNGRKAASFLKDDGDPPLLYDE
UniProt P46063: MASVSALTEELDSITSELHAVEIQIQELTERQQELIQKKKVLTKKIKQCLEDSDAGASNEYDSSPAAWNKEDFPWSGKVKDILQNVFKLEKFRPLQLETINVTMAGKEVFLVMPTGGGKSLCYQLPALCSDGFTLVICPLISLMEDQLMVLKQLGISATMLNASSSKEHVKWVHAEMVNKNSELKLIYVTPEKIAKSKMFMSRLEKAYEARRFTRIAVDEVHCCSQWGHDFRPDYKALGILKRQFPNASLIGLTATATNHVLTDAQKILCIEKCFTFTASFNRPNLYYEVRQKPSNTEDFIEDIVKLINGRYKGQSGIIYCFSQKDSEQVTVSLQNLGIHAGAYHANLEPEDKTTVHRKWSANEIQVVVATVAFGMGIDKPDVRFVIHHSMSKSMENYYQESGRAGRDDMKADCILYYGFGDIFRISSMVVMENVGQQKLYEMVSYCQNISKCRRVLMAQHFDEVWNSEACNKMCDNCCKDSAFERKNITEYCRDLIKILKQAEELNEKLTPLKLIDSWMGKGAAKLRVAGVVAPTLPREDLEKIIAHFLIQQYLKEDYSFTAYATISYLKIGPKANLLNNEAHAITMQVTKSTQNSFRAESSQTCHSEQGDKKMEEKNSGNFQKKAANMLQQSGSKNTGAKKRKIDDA
UniProt P40938, whole entry, looked up: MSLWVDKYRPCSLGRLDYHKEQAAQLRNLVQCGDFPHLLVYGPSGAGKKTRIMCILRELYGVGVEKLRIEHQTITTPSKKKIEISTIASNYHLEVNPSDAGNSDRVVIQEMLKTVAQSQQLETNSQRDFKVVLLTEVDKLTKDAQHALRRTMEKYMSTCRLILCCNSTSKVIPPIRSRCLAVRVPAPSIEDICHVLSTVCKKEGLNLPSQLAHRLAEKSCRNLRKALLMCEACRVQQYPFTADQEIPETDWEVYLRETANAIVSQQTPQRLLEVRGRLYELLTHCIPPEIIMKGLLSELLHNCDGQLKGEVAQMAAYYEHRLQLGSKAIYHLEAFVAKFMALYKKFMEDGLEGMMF
UniProt Q6NUM9: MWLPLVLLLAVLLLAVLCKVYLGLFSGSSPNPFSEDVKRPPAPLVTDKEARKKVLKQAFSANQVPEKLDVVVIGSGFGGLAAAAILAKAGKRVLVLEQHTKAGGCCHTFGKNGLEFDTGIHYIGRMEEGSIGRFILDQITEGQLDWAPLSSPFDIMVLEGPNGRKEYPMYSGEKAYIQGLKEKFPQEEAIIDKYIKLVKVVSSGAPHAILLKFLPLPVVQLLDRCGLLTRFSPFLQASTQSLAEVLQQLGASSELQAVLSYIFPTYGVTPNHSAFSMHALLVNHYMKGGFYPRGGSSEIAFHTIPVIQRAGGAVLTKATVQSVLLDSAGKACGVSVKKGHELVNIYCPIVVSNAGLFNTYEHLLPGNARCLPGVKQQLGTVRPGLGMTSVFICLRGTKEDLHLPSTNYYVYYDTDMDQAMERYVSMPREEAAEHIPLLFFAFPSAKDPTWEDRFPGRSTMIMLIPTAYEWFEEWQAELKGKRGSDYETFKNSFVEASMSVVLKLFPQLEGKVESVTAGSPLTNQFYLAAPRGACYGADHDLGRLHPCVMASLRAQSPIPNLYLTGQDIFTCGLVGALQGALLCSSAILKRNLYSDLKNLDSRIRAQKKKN
UniProt P84095: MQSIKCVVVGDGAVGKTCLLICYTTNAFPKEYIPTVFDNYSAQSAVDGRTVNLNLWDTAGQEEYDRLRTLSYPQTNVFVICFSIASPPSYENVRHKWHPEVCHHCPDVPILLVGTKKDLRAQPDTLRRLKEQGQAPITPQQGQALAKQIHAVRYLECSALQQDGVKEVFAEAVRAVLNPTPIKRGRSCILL
UniProt Q9H871: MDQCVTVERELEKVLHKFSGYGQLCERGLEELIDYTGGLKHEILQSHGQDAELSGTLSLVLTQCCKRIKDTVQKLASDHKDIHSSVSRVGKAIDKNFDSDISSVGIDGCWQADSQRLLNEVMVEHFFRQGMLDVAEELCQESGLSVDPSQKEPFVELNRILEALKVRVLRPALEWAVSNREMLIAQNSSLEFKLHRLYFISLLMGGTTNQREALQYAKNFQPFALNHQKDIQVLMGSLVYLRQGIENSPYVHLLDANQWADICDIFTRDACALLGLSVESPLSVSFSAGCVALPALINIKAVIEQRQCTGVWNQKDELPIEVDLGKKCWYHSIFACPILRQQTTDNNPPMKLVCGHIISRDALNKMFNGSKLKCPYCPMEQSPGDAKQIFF
UniProt Q4ADV7: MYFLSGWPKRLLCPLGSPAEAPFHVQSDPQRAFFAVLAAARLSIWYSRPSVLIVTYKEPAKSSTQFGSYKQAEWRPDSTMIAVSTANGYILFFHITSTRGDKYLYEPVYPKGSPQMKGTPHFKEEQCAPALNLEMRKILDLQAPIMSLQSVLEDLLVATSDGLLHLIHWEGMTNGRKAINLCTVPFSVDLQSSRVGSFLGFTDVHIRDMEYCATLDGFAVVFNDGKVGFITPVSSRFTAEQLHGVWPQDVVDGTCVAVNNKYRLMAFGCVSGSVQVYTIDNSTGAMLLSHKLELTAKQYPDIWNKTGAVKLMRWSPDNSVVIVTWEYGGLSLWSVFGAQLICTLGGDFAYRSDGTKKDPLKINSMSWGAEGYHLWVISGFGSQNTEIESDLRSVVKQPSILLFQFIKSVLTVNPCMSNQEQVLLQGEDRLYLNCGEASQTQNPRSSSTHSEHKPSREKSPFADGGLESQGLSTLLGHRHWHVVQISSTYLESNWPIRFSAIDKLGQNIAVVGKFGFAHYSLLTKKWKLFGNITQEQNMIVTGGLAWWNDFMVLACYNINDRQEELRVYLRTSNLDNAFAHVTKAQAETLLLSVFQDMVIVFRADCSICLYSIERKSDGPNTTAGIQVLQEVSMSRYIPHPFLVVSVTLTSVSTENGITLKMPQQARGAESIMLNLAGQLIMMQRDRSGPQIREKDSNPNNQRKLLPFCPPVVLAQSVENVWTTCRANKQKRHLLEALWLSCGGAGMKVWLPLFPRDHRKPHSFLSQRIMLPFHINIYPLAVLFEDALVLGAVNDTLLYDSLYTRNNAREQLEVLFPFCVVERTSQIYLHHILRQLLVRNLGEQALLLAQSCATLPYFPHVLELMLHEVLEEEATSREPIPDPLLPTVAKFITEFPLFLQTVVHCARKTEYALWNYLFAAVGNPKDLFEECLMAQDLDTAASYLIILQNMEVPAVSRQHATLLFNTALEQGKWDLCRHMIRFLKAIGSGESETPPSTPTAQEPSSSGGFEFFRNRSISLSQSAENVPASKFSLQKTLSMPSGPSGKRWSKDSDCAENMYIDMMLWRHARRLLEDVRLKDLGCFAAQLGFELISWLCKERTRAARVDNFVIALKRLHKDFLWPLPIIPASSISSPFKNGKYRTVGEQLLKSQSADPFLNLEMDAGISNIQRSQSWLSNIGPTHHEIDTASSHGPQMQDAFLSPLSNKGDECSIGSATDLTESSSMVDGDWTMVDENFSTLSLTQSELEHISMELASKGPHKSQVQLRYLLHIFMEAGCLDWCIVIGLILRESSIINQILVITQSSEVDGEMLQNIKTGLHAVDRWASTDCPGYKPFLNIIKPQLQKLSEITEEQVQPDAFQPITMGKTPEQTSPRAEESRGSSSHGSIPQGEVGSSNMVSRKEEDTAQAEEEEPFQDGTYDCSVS

What follows are targets tested with Cc1cc(ccc1-c1ccccc1)C(=O)N1CCCN(CC1)C(=O)CCl [compound 10] (assay: probe-labelled cysteine peptide fold change vs DMSO (competition) (log2 fold change); higher = less target engagement (more negative = stronger competition)). Details: 10 µM; THP-1; incubation time: 4 h.
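Note: competitive profiling in live THP-1 cells: cysteine peptides tagged with an iodoacetamide desthiobiotin (IA-DTB) probe, intensity after compound treatment relative to DMSO-treated cells.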

| Target | probe-labelled cysteine peptide fold change |
| --- | --- |
| RLF_Q13129_808_DASYTCNFLGCK (UniProt Q13129) | -0.183 |
| RLF_Q13129_1591_THQMSSAYLEQQMENLVVCVK (UniProt Q13129) | 0.112 |
| RHOA_P61586_159_IGAFGYMECSAK (UniProt P61586) | -0.00736 |
| RGP1_Q92546_90_GQCILSTPPK (UniProt Q92546) | -0.094 |
| RFWD3_Q6PCD5_315_CISTWLK (UniProt Q6PCD5) | -0.162 |
| RIOK3_O14730_287_VIPTECAIK (UniProt O14730) | -0.175 |
| RECQL_P46063_321_YKGQSGIIYCFSQK (UniProt P46063) | -0.137 |
| RIF1_Q5UIP0_2450_LSCMANSVIK (UniProt Q5UIP0) | -0.0942 |
| RGS10_O43665_66_EFSEENVLFWLACEDFK (UniProt O43665) | 0.332 |
| REPIN1_Q9BWE0_167_CHPPAPEAR (UniProt Q9BWE0) | 0.0487 |
| RECQL4_O94761_897_VCMGHER (UniProt O94761) | -0.115 |
| RNASET2_O00584_241_VCEDGPVFYPPPK (UniProt O00584) | -0.342 |
| RIOX1_Q9H6W3_584_CLEIYPQQADAMELLLGSYPEFVR (UniProt Q9H6W3) | 0.184 |
| RMC1_Q96DM3_635_GSPNFTPGEHCEEHVAFFK (UniProt Q96DM3) | 0.0488 |
| RLF_Q13129_557_FFCLLCK (UniProt Q13129) | -0.322 |
| RLF_Q13129_663_LEDCHLQDRDLYPCPGTDCSR (UniProt Q13129) | -0.0144 |
| RECQL_P46063_414_ADCILYYGFGDIFR (UniProt P46063) | 0.295 |
| RINL_Q6ZS11_421_LAHLHAACAPR (UniProt Q6ZS11) | 0.0462 |
| RLF_Q13129_584+587_MHMEDGIYTCPVCIK (UniProt Q13129) | 0.00862 |

Quoted from the listing:
RLF_Q13129_663_LEDCHLQDRDLYPCPGTDCSR (UniProt Q13129) | probe-labelled cysteine peptide fold change: -0.0144
RIOK3_O14730_287_VIPTECAIK (UniProt O14730) | probe-labelled cysteine peptide fold change: -0.175

Remaining list, next part:

| Target | probe-labelled cysteine peptide fold change |
| --- | --- |
| RLF_Q13129_948_CSSMAVCFDGTK (UniProt Q13129) | -0.522 |
| RNF126_Q9BV68_32_CESGFIEELPEETR (UniProt Q9BV68) | -0.123 |
| RFC3_P40938_230+233_ALLMCEACR (UniProt P40938) | -0.0104 |
| RETSAT_Q6NUM9_370_CLPGVK (UniProt Q6NUM9) | -0.221 |
| RFC3_P40938_193+200_VPAPSIEDICHVLSTVCK (UniProt P40938) | 0.312 |
| RHOT2_Q8IXI1_504_SFAHCASVYK (UniProt Q8IXI1) | -0.0106 |
| RFC4_P35249_48_CVDEVAFQEEVVAVLK (UniProt P35249) | 0.000266 |
| RGS19_P49795_123_TEYSEENMLFWLACEELK (UniProt P49795) | 0.335 |
| RGS14_O43566_496_QTCDIEGLVELLNR (UniProt O43566) | -0.339 |
| RMND1_Q9NWS8_409_LQHCMELTDLMR (UniProt Q9NWS8) | 0.18 |
| RHOG_P84095_105_WHPEVCHHCPDVPILLVGTKK (UniProt P84095) | 0.0223 |
| RNF121_Q9H920_251_LSCNHVFHEFCIR (UniProt Q9H920) | 0.00159 |
| RMND5A_Q9H871_328_CWYHSIFACPILR (UniProt Q9H871) | -0.0113 |
| REPS1_Q96D71_56_AAQLPNDVVLQIMELCGATR (UniProt Q96D71) | 0.018 |
| RMND5A_Q9H871_354_LVCGHIISR (UniProt Q9H871) | -0.0314 |
| RGP1_Q92546_293_HQESCLHTTR (UniProt Q92546) | 0.0253 |
| RMND5A_Q9H871_109_NFDSDISSVGIDGCWQADSQR (UniProt Q9H871) | -0.0348 |
| RHOG_P84095_102_WHPEVCHHCPDVPILLVGTK (UniProt P84095) | 0.159 |
| RIC1_Q4ADV7_904_FITEFPLFLQTVVHCAR (UniProt Q4ADV7) | 0.154 |
